Test results reported in paper PMC7772139.
Results are given in words; binding and its absence hold for the method and conditions named. For some assays here: Binding can be weak; no strength is given. For some assays here: Binding seen in cells or lysates may run through a third protein. For some assays here: Tags and fused reporters may be left off the sequences shown.

Columns and labels:
[1] = target: SL1 lacking the N-terminal transit peptide (GST-SL1; His fusion of SL1) (Arabidopsis thaliana); assay: pull-down; GST-SL1 coupled to glutathione resin, incubated with His fusion proteins; PBS pH 7.4; washed with PBS pH 7.4, 0.5% Triton X-100, 0.5 mM PMSF; bound proteins detected by Western blot with anti-His
[2] = target: SL1 CT (C-terminal of mature SL1) (Arabidopsis thaliana); assay: two-hybrid; SL1 truncations (CTP, NT, MTERF, CT, mature protein) against SL1, PAP12/PTAC7, PAP5/PTAC12 and PAP7/PTAC14; which side was bait is not stated; yeast strain Y2H Gold; dropout media as for a1
[3] = target: SL1 MTERF (mTERF domains) (Arabidopsis thaliana); assay: as above
[4] = target: SL1 NT (N-terminal of mature SL1) (Arabidopsis thaliana); assay: as above
[5] = target: Seedling Lethal 1 (SL1/mTERF3) (Arabidopsis thaliana); assay: two-hybrid; SL1 as bait (GAL4 DNA binding domain, pGBKT7), PEP complex proteins and chloroplast mTERF proteins as prey (GAL4 activation domain, pGADT7); yeast strain Y2H Gold; growth on SD/-Trp-Leu, SD/-Trp-Leu-His and SD/-Trp-Leu-His-Ade

binding [1]	binding [2]	binding [3]	binding [4]	Binder	binding [5]
binds				PAP5/PTAC12 lacking the N-terminal transit peptide, His fusion (protein, UniProt F4IHY7 31-527) VKCGFPLKTLHAGITSRDRSLRHCIKCKKEDGDGDVSEGSKKSEEGFEYVTVERHPYHSYMDSTSGKLEPASGARASIPGEDYWPEGTSSRVRAARAPQPAGESSSFPSYGKNPGSRRKKNRKATEENVTVETNDEVSDSEDSSEEEENDSSDGFVTYKNEFEREEEETGFELDKKLGRPHPFIDPTKKKQIEKTLTSDESWWNWRKPEKEQWSRWQRRRPDVETVFLKAMAETGQVKLYGEEPTLTETSLYRARRHLFKEERLQAERERLAKEGPMAFYSEWVKAWKRDTSREAVQKHFEETGEDENTQLIEMFSHQTDREYRIMMGTDIRIKRDPLAMRMREDQIKQIWGGDPVYPTINYIQDPNAVMDFRGPDFHEPTPNMLSYLKENGKVISREMHEALLTKEKTEQLEVPDMDDAMAQAVDIGENDDDEDDADVEKDDEKVPRNWSVLKETPELRTAKPKPKKEGRMSLDEAVDDAENLTDFLMDFEEETDP	
binds				PAP7/PTAC14 lacking the N-terminal transit peptide, His fusion (protein, UniProt Q84JF5 63-483) ASEESSSSELETADPDFYKIGYVRSVRAYGVEFKEGPDGFGVYASKDIEPRRRARVIMEIPLELMITIRQKHPWMFFPDIVPIGHPIFDIINSTDPEIDWDIRLACLLLFSFDRDDHFWRLYGDFLPAADECSSLLLATEEDLAELQDPDLVSTIRQQQKRILDFWEKNWHSGVPLKIKRLAEDPERFIWAVSMAQTRCISMQTRVGALVQELNMMIPYADMLNHSFEPNCFLHWRPKDRMLEVMSNAGQDIKKGEEMTINYMPGQKNNMLMERYGFSTPVNPWDAIKFSGDSRIHLNSFLSVFNIYGLPEEYYHDSELSRGDTFVDGAVIAAARTLPTWSDIDLPPIPSAERKAVKELQDECRKMLAEYPTTAEQDQKLLDSMSEARTTFATAVKYRMHRKMFIGKIIKALDIYQERLLY	
	no binding	no binding	binds	PAP7/PTAC14 (protein, UniProt Q84JF5 1-483) MASSVSLQFLTNTFISKPQGFCNGIVSAPRPRSNLLRDRQNGVRPIKVASIETQPFPLFQSPASEESSSSELETADPDFYKIGYVRSVRAYGVEFKEGPDGFGVYASKDIEPRRRARVIMEIPLELMITIRQKHPWMFFPDIVPIGHPIFDIINSTDPEIDWDIRLACLLLFSFDRDDHFWRLYGDFLPAADECSSLLLATEEDLAELQDPDLVSTIRQQQKRILDFWEKNWHSGVPLKIKRLAEDPERFIWAVSMAQTRCISMQTRVGALVQELNMMIPYADMLNHSFEPNCFLHWRPKDRMLEVMSNAGQDIKKGEEMTINYMPGQKNNMLMERYGFSTPVNPWDAIKFSGDSRIHLNSFLSVFNIYGLPEEYYHDSELSRGDTFVDGAVIAAARTLPTWSDIDLPPIPSAERKAVKELQDECRKMLAEYPTTAEQDQKLLDSMSEARTTFATAVKYRMHRKMFIGKIIKALDIYQERLLY	binds
	no binding	no binding	binds	PAP12/PTAC7 (protein, UniProt Q8VZV9 1-161) MASFTCSSPSSILPIIDTRSGNLRCTFQSQVSCGIQRDDNGRRVWRRRTLTKKDDMLRYKMQRVPFVEEQVRKIREVGKVMTMDIEQLLLREDNRFEFVNSVAAEATEYVDKNRDEYGGSKKAIFHVLSNRVNDLGFDRPEAYVEADPYKPGPGYLLEYYT	binds
	no binding	no binding	binds	PAP5/PTAC12 (protein, UniProt F4IHY7 1-527) MASISTTTWLYRGQVCTDSGKSSNCIVQRRVKCGFPLKTLHAGITSRDRSLRHCIKCKKEDGDGDVSEGSKKSEEGFEYVTVERHPYHSYMDSTSGKLEPASGARASIPGEDYWPEGTSSRVRAARAPQPAGESSSFPSYGKNPGSRRKKNRKATEENVTVETNDEVSDSEDSSEEEENDSSDGFVTYKNEFEREEEETGFELDKKLGRPHPFIDPTKKKQIEKTLTSDESWWNWRKPEKEQWSRWQRRRPDVETVFLKAMAETGQVKLYGEEPTLTETSLYRARRHLFKEERLQAERERLAKEGPMAFYSEWVKAWKRDTSREAVQKHFEETGEDENTQLIEMFSHQTDREYRIMMGTDIRIKRDPLAMRMREDQIKQIWGGDPVYPTINYIQDPNAVMDFRGPDFHEPTPNMLSYLKENGKVISREMHEALLTKEKTEQLEVPDMDDAMAQAVDIGENDDDEDDADVEKDDEKVPRNWSVLKETPELRTAKPKPKKEGRMSLDEAVDDAENLTDFLMDFEEETDP	binds
